Assay results: publication PMC11570452, “MOTS-c modulates skeletal muscle function by directly binding and activating CK2” (iScience, 2024)
These are yes or no findings as the source states them, for the method shown. Binding seen in cells or lysates may run through a third protein. Here binding means that the protein was enriched with, or labelled near, the bait; the list need not be complete.

Sequences of proteins named here, by UniProt entry; tags and fusion partners are left off. A change or cut given only in a name is not applied to a line headed by its entry.
UniProt Q60737: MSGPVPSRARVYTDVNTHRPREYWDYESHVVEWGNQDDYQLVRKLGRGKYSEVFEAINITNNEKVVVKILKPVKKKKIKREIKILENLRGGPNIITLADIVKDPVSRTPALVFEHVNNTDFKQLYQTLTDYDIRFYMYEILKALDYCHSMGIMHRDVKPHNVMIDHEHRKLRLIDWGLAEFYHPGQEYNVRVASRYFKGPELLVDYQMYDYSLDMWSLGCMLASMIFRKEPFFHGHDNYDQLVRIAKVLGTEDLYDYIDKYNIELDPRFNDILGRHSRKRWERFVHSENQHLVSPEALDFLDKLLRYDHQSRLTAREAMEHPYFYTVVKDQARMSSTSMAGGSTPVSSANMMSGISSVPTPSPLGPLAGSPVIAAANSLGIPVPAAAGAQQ
UniProt Q0VAW6: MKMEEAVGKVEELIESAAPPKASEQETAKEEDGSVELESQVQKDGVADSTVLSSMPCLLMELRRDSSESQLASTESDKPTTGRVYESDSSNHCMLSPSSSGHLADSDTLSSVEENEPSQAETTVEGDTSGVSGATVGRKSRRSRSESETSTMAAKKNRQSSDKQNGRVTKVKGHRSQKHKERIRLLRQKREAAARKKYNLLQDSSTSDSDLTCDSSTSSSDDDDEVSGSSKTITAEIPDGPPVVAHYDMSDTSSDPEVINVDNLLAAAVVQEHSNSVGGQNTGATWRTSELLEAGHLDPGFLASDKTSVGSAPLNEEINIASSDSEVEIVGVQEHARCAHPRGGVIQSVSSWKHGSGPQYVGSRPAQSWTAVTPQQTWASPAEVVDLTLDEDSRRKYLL
UniProt O54833: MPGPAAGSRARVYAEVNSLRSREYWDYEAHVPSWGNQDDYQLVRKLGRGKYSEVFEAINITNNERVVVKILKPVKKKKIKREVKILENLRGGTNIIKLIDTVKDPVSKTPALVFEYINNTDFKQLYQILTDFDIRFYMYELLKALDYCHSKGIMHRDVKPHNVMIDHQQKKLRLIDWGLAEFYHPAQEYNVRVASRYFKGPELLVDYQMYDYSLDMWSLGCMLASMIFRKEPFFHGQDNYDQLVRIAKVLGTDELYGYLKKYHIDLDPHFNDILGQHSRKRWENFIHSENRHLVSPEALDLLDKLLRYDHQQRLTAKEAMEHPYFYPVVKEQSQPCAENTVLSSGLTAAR
UniProt P21107: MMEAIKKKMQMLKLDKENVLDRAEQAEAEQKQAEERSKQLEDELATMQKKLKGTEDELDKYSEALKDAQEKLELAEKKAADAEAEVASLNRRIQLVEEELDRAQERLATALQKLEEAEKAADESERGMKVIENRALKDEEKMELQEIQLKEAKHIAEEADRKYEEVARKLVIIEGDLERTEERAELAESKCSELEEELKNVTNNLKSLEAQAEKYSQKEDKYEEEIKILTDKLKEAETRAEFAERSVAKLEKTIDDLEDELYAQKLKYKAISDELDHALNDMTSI

Molecular target: CK2α, endogenous in mouse tissues (mouse (endogenous in C57BL/6J gastrocnemius muscle, epididymal fat, liver)) (UniProt Q60737)
Test: affinity purification with mass spectrometry; CK2α immunoprecipitation (rabbit IgG as control) from gastrocnemius muscle and epididymal fat of mice 30 min after MOTS-c or sterilized water; LC-MS/MS, n = 3 per condition

binding, binds:
8030462N17Rik (from UniProt Q0VAW6)
CK2α′, endogenous in mouse tissues (from UniProt O54833 1-350) (enzyme)
tropomyosin 3 (TPM3) (from UniProt P21107 1-285)
